The record followed here is paper PMC10861516.

For this experiment, the target named is T1, Flag-tagged human EFHD2 (EF-hand domain-containing protein D2) (human) (UniProt Q96C19).
T1 sequence: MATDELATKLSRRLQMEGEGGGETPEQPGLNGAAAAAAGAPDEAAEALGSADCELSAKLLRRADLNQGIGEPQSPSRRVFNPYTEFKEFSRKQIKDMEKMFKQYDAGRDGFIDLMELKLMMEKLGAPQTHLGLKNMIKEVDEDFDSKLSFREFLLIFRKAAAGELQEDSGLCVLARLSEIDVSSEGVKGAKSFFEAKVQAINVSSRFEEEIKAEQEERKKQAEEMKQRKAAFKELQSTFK
Put plainly: affinity purification with mass spectrometry; HCT-116 cells transfected with FLAG-EFHD2, treated with 50 ng/ml TNF; proteins immunoprecipitated by FLAG beads, separated, silver stained, LC-MS.

These are yes or no findings as the source states them, for the method shown. In cells and extracts the contact can be indirect. A yes stands for co-enrichment or nearness to the bait. Other partners may have been found. Where a sequence is shown, tags or fusion partners need not be part of it.

Cofilin (human (endogenous in HCT-116)): the binding entry is given as “binds”.
